Reference: US20130130315A1 (ADVANCECOR, published 2013)
Results are given in words; binding and its absence hold for the method and conditions named. Some binding calls cover weakened binding; strength is not graded here. For part of these data: Where a sequence is shown, tags or fusion partners need not be part of it.

Protein sequences, listed by entry. Tags and fused reporters are not part of them. Lines headed by an entry give the natural chain unless they say otherwise; changes in a name come on top.
UniProt P02453: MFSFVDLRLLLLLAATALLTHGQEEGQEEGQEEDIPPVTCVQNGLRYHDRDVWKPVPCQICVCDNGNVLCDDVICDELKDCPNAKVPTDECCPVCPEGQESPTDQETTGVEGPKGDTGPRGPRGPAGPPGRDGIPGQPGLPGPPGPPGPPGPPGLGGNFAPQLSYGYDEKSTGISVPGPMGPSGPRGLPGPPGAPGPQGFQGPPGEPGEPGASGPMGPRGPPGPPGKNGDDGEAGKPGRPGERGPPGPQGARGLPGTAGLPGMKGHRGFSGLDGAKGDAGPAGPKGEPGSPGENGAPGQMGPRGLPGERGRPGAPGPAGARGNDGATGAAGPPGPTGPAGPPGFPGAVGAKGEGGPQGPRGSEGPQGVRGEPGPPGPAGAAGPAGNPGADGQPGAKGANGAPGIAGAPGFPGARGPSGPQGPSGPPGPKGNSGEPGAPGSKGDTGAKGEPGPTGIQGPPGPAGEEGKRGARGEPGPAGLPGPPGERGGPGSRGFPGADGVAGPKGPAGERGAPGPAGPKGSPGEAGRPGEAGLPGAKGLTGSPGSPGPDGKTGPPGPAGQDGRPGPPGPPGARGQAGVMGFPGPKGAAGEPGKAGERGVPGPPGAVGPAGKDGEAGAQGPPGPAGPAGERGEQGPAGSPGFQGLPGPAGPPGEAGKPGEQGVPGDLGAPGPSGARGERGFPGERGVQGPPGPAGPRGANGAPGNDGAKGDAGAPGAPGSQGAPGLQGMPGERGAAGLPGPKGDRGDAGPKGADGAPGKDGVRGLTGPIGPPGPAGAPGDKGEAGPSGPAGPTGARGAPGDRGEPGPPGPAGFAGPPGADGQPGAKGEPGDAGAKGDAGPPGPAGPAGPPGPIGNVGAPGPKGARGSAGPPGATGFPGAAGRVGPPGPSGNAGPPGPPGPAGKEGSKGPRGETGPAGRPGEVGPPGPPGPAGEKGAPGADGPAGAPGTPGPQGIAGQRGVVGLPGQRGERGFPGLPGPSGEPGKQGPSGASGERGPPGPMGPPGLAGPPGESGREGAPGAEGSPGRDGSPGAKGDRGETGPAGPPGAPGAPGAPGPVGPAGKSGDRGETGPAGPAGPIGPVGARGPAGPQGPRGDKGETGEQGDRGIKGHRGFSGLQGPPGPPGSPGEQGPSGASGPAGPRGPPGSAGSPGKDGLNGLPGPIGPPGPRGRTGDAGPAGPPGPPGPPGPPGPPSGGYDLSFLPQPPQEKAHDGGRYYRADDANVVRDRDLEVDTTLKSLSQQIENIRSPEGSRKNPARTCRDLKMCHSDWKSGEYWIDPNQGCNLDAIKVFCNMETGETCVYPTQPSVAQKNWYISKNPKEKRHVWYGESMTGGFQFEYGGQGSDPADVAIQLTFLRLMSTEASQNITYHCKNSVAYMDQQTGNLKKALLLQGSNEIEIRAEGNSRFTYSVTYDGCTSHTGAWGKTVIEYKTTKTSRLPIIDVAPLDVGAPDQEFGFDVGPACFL

What was measured:
bovine collagen I [1] = molecular target: T1, bovine collagen I (bovine, UniProt P02453 162-1217; P02465 80-1117, limits assumed); test: ELISA on immobilized bovine collagen I (FIG. 9)
T1 construct: also called immobilized collagen I; soluble collagen I

bovine collagen I [2] = molecular target: T1, bovine collagen I; test: ELISA on immobilized bovine collagen I; specificity confirmed by competition with soluble collagen I
CD133 protein [3] = molecular target: T2, CD133 protein (UniProt O43490); test: competitive cellular ELISA on fixed AC133/293 cells; competitor of 2 nM W6B3H10 mAb
T2 sequence (looked up): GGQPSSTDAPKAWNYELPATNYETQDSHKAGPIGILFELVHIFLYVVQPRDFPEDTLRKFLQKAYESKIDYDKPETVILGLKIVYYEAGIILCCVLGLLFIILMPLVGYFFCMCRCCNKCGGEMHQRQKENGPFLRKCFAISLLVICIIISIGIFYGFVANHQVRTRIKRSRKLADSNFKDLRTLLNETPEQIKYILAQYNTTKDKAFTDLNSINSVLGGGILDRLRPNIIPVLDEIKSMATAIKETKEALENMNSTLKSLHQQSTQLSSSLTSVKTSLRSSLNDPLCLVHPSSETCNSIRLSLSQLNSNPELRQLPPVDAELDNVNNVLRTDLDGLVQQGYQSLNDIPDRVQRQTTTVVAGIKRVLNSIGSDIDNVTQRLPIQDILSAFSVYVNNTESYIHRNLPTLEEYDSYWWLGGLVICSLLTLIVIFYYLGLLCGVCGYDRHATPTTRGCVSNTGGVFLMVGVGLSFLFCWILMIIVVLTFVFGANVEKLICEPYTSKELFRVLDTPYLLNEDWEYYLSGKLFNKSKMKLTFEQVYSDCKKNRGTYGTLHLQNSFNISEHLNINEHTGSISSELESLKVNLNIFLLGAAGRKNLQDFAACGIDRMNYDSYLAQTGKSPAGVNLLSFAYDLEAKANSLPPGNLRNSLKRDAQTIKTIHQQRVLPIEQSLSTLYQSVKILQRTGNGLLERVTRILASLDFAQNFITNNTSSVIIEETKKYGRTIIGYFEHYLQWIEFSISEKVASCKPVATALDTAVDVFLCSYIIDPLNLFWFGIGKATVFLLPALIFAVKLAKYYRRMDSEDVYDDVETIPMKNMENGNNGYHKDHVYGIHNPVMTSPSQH

CD133 protein [4] = molecular target: T2, CD133 protein; test: cellular ELISA on fixed AC133/293 cells (FIG. 5)
CD133 protein [5] = molecular target: T2, CD133 protein; test: cellular ELISA on fixed AC133/293 cells
CD133 protein [6] = molecular target: T2, CD133 protein; test: cellular ELISA, threefold dilution series on fixed AC133/293 cells
bovine collagen I [7] = molecular target: T1, bovine collagen I; test: ELISA on immobilized bovine collagen I
Experimental: Fc-protein was used as negative control.
An Immulon 2 HB 96-well plate (NUNC, Rochester, N.Y.) was coated with 0.1 ml 1 μg/ml bovine collagen I in 15 mM Na₂CO3, 35 mM NaHCO3, pH 9.6 o/n at 4° C. Wells were washed with PBS-T, blocked with 0.1 ml 1× RotiBlock (Roth, Karlsruhe, Germany) in PBS-T for one hour and washed again before addition of 0.1 ml of threefold dilutions of fusion protein. After one hour incubation at RT with shaking, wells were washed with PBS-T. Wells were incubated with 0.1 ml anti-human IgG-HRP (Dianova, Hamburg, Germany) 1:10000 in PBS-T for one hour at RT with shaking. The plate was washed with PBS-T and incubated with 0.1 ml 1-Step Ultra TMB-ELISA (PIERCE, Rockford, Ill.). After blue staining had developed sufficiently, reactions were stopped by addition of 0.1 ml 1 M H₂SO₄. Absorbance was measured at 450 nm and 595 nm as a reference wavelength using an infinite F200 plate reader (TECAN, Männedorf, Switzerland). EC₅₀ values were calculated with Sigma Plot 11 using Four Parameter Logistic.

CD133 protein [8] = molecular target: T2, CD133 protein; test: phage display selection on CD133 membrane preparations and phage FACS on AC133/293 cells

B1: fusion protein scFv-lh-GPVI-FcIgG2 (Fc fusion)
chain: DILMTQSPKSMSMSLGERVTLSCKASENVDTYVSWYQQKPEQSPKVLIYGASNRYTGVPDRFTGSGSATDFSLTISNVQAEDLADYHCGQSYRYPLTFGAGTKLELKGGGGSGGGGSGGGGSEVQLQQSGPDLMKPGASVKISCKASGYSFTNYYVHWVKQSLDKSLEWIGYVDPFNGDFNYNQKFKDKATLTVDKSSSTAYMHLSSLTSEDSAVYYCARGGLDWYDTSYWYFDVWGAGTAVTVSSQSGPLPKPSLQALPSSLVPLEKPVTLRCQGPPGVDLYRLEKLSSSRYQDQAVLFIPAMKRSLAGRYRCSYQNGSLWSLPSDQLELVATGVFAKPSLSAQPGPAVSSGGDVTLQCQTRYGFDQFALYKEGDPAPYKNPERWYRASFPIITVTAAHSGTYRCYSFSSRDPYLWSAPSDPLELVVTGTSVTPSRLPTEPPSSVAEFSEATAELTVSFTNKVFTTETSRSITTSPKESDSPAGPARQYYTKGNGGRVECPPCPAPPVAGPSVFLFPPKPKDTLMISRTPEVTCVVVDVSHEDPEVQFNWYVDGVEVHNAKTKPREEQFNSTFRVVSVLTVVHQDWLNGKEYKCKVSNKGLPAPIEKTISKTKGQPREPQVYTLPPSREEMTKNQVSLTCLVKGFYPSDIAVEWESNGQPENNYKTTPPMLDSDGSFFLYSKLTVDKSRWQQGNVFSCSVMHEALHNHYTQKSLSLSPGK
notes: also called parental fusion protein; mouse fusion protein
Bovine collagen I [1]
  binding: binds
Bovine collagen I [2]
  binding: binds
CD133 protein [3]
  binding: binds

B2: single chain antibody scFv-lh (scFv, not shown: a dimerising Fc or GST)
scFv: DILMTQSPKSMSMSLGERVTLSCKASENVDTYVSWYQQKPEQSPKVLIYGASNRYTGVPDRFTGSGSATDFSLTISNVQAEDLADYHCGQSYRYPLTFGAGTKLELKGGGGSGGGGSGGGGSEVQLQQSGPDLMKPGASVKISCKASGYSFTNYYVHWVKQSLDKSLEWIGYVDPFNGDFNYNQKFKDKATLTVDKSSSTAYMHLSSLTSEDSAVYYCARGGLDWYDTSYWYFDVWGAGTAVTVSS
notes: Orientation light-heavy; Made in CHO cells and in E. coli (pET22b); also called mouse single chain antibody; parental mouse single chain antibody
CD133 protein [4]
  binding: binds
CD133 protein [5]
  binding: binds
CD133 protein [6]
  binding: binds

B3: humanized fusion protein hscFv-lh-GPVI-Fc (Fc fusion)
chain: DIQMTQSPKSLSASVGDRVTITCKASENVDTYVSWYQQKPGKAPKVLIYGASNRYTGVPSRFTGSGSATDFTLTISSLQPEDFATYYCGQSYRYPLTFAQGTKVEIKGGGGSGGGGSGGGGSEVQLVQSGAEVKKPGASVKVSCKASGYSFTNYYVHWVKQAPGQGLEWMGYVDPFNGDFNYNQKFKDRVTLTVDTSTSTAYMELSSLTSEDRAVYYCARGGLDWYDTSYWYFDVWGQGTLVTVSSQSGPLPKPSLQALPSSLVPLEKPVTLRCQGPPGVDLYRLEKLSSSRYQDQAVLFIPAMKRSLAGRYRCSYQNGSLWSLPSDQLELVATGVFAKPSLSAQPGPAVSSGGDVTLQCQTRYGFDQFALYKEGDPAPYKNPERWYRASFPIITVTAAHSGTYRCYSFSSRDPYLWSAPSDPLELVVTGTSVTPSRLPTEPPSSVAEFSEATAELTVSFTNKVFTTETSRSITTSPKESDSPAGPARQYYTKGNGGRVECPPCPAPPVAGPSVFLFPPKPKDTLMISRTPEVTCVVVDVSHEDPEVQFNWYVDGVEVHNAKTKPREEQFNSTFRVVSVLTVVHQDWLNGKEYKCKVSNKGLPAPIEKTISKTKGQPREPQVYTLPPSREEMTKNQVSLTCLVKGFYPSDIAVEWESNGQPENNYKTTPPMLDSDGSFFLYSKLTVDKSRWQQGNVFSCSVMHEALHNHYTQKSLSLSPGK
Bovine collagen I [7]
  binding: binds
CD133 protein [5]
  binding: binds

B4: phage clone 27 (humanized single chain antibody derived from phage clone 27) (scFv)
scFv: DIQMTQSPKSLSMSVGDRVTITCKASENVDTYVSWYQQKPGKAPKVLIYGASNRYTGVPSRFSGSGSATDFTLTISSLQPEDFATYHCGQSYRYPLTFGQGTKVEIKGGGGSGGGGSGGGGSEVQLVQSGAEVKKPGASVKVSCKASGYSFTNYYVHWVKQAPGQGLEWMGYVDPFNGDFNYNQKFKDRVTLTVDTSTPTAYMELSSLTPEDTAVYYCARGGLDWYDTSYWYFDVWGQGTLVTVSS
notes: not shown: fusion to the phage coat protein; display format not described
CD133 protein [8]
  binding: binds
